Results on two substances are retold here after paper PMC11136987.

By UniProt entry, the sequences of proteins in these tests, tags left out. Residues count along the entry.
UniProt Q8R4B8: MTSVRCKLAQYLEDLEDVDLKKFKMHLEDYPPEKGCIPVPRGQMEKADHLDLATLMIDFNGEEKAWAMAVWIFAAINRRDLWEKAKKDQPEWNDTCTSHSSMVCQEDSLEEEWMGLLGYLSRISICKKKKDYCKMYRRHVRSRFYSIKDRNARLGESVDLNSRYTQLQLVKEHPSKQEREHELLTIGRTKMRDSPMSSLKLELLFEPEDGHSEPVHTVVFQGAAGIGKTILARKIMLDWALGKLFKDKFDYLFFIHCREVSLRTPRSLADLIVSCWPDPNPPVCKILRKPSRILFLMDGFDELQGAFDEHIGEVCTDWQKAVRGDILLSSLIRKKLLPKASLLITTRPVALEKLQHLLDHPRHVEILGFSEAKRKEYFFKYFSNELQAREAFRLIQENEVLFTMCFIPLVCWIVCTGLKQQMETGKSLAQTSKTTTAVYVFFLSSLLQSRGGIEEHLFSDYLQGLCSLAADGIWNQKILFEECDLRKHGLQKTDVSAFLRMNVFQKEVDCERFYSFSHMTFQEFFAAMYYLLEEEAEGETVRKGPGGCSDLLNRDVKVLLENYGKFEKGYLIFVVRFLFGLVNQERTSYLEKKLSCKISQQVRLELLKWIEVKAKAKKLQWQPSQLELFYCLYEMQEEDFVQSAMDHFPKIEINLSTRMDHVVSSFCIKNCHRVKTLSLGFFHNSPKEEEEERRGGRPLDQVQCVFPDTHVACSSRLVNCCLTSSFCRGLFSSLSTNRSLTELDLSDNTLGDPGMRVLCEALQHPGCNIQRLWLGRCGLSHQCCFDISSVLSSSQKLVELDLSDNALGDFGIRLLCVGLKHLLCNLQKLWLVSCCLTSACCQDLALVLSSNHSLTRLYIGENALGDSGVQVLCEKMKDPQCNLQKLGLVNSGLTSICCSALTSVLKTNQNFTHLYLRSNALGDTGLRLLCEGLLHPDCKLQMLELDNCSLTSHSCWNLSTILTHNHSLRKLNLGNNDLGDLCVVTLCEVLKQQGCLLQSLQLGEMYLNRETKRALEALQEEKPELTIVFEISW
UniProt Q96P20, residues 1-536: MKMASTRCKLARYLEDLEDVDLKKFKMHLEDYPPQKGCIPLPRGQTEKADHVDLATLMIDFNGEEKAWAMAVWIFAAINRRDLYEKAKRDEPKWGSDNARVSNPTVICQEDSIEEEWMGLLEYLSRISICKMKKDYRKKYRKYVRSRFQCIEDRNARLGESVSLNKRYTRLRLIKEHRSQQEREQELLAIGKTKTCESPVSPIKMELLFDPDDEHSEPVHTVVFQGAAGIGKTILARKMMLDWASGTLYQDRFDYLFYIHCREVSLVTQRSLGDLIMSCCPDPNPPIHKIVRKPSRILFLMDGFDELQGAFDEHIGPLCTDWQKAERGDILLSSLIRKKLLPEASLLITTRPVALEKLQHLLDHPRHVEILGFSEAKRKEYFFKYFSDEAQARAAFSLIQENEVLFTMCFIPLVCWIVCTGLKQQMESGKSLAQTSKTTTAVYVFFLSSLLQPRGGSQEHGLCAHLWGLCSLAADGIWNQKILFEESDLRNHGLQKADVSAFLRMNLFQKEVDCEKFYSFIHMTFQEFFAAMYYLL
UniProt Q9ULZ3: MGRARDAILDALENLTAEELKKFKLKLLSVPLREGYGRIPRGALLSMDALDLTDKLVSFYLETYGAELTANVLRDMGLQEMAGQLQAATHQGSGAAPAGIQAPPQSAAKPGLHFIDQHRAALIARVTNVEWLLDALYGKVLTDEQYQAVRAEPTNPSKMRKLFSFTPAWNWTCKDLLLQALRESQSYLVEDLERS
UniProt O35387: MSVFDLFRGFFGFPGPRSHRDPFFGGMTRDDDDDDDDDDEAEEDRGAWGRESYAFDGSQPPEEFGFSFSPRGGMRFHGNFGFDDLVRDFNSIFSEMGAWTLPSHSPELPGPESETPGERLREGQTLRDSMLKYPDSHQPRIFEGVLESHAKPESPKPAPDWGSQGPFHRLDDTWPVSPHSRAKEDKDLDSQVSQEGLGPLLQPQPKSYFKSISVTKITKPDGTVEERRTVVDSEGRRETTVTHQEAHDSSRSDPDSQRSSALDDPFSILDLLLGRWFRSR
UniProt O00165: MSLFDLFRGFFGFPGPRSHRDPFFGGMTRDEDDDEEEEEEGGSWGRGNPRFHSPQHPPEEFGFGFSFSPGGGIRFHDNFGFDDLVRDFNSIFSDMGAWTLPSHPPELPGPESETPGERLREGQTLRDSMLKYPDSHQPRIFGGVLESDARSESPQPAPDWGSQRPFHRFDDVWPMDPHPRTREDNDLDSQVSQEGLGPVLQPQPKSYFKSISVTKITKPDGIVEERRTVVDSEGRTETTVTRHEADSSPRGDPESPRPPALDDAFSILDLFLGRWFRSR

These are yes or no findings as the source states them, for the method shown. For part of these data: In cells and extracts the contact can be indirect. Some results given as binding are weak or reduced against the parent protein; the word gives no strength.

For assay [1], the target named is NLRP3 (endogenous, mouse microglia BV2 and mouse brain) (mouse (endogenous in BV2 cells and C57BL/6 brain)) (UniProt Q8R4B8). Description: co-IP; BV2 cell lysates, ASC/HAX-1/NLRP3 antibody crosslinked to magnetic beads (Pierce Crosslink Magnetic IP Kit), 4 °C 1 h, western blot; control and OGD/R cells; HAX-1 NC, OE, KD1 and KD2 groups.
Assay [2] deals with recombinant partial NLRP3 1-536aa (UniProt Q96P20). In words: BLI; sequential binding: NLRP3 1-536 on SA biosensors, first 25/50/100 nM HAX-1 then 100 nM ASC, or first 25/50/100 nM ASC then 100 nM HAX-1; PBS; both purified. For orientation: BLI is a label-free optical method that tracks binding on a fibre tip over time.
Assay [3] concerns the target recombinant full-length ASC (UniProt Q9ULZ3). In words: BLI; Octet RED96; HAX-1 against ASC, performed as for NLRP3; which of the two was immobilised is not stated; PBS; both purified.

Take “HAX-1 (endogenous, mouse microglia BV2 and mouse brain) (from UniProt O35387 1-280)”: the binding entry in assay [1] is listed as “binds”.
For the substance “recombinant full-length HAX-1 (from UniProt O00165 1-279)”, the binding entry in assay [2] is on record as “binds”; in assay [3] it was “no binding”.
